Assay results reported in doi:10.1101/2025.09.27.678968.
Results are given in words; binding and its absence hold for the method and conditions named. Binding can be weak; no strength is given. For part of these data: Where a sequence is shown, tags or fusion partners need not be part of it.

Columns and labels:
Assay in all cases: pull-down
[1] = molecular target: T1, MBP-MEX3C(222-600)-lipoyl (H. sapiens) (UniProt Q5U5Q3)
T1 sequence: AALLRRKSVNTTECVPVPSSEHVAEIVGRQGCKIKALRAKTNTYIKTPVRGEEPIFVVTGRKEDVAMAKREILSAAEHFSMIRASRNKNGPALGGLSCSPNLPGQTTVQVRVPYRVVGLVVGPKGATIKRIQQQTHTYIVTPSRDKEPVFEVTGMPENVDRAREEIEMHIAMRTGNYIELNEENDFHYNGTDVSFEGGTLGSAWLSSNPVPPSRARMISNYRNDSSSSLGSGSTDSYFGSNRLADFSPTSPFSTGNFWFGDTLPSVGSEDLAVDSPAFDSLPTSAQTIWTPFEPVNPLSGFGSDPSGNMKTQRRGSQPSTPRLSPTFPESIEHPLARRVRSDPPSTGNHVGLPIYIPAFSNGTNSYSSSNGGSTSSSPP

[2] = molecular target: T2, MBP-MEX3C(418-600)-lipoyl (H. sapiens) (UniProt Q5U5Q3)
T2 sequence: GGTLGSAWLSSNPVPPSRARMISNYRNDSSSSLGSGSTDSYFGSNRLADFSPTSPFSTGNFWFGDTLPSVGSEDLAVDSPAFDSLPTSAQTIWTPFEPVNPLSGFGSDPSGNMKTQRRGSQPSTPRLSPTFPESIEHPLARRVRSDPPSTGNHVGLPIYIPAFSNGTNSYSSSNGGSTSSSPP

[3] = molecular target: T3, MBP-tagged MEX3C(222-659), construct 3 (H. sapiens) (UniProt Q5U5Q3)
T3 sequence: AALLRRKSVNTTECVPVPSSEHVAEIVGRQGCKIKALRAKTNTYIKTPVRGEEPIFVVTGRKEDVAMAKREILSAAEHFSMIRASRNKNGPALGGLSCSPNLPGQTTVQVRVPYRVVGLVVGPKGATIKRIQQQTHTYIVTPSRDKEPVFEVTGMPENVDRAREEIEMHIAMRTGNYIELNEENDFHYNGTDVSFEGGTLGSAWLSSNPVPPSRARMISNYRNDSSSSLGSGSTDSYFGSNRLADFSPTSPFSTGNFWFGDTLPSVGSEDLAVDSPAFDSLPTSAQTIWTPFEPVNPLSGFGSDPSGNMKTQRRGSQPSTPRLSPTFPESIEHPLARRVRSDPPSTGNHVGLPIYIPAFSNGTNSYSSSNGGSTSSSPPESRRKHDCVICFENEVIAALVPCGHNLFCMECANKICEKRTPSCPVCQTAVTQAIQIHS

[4] = molecular target: T4, MBP-tagged MEX3C, construct 1 (full-length) (H. sapiens) (UniProt Q5U5Q3)
T4 sequence: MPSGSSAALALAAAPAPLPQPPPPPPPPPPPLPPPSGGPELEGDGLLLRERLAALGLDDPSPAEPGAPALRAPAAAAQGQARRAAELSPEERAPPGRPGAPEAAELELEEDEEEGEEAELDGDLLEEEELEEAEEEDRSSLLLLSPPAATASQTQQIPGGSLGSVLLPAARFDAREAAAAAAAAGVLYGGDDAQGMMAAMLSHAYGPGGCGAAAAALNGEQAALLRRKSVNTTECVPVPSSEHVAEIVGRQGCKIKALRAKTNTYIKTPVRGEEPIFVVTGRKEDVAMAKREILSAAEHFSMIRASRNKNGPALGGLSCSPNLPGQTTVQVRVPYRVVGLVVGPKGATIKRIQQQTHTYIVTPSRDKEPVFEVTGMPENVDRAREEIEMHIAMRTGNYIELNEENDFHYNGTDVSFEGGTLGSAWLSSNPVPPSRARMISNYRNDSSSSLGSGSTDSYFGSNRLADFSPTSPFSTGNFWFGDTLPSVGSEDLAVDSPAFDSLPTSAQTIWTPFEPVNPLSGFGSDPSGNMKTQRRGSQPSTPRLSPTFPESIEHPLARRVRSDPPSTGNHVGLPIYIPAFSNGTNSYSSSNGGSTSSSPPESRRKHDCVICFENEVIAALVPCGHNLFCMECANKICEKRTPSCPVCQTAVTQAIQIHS

[5] = molecular target: PAN2^E980A–PAN3^ΔN278-SII (H. sapiens)
[6] = molecular target: PAN2–PAN3^ΔN278-SII (H. sapiens)

For “PAN2–PAN3^ΔN278-SII (H. sapiens) (complex)”, the binding [1] was “binds”, the binding [2] was “binds” and the binding [3] was “binds”. The binding [4] was “binds”.

B1: MEX3B (protein, UniProt Q6ZN04 1-569)
chain: MPSSLFADLERNGSGGGGGGSSGGGETLDDQRALQLALDQLSLLGLDSDEGASLYDSEPRKKSVNMTECVPVPSSEHVAEIVGRQGCKIKALRAKTNTYIKTPVRGEEPVFVVTGRKEDVAMARREIISAAEHFSMIRASRNKNTALNGAVPGPPNLPGQTTIQVRVPYRVVGLVVGPKGATIKRIQQQTHTYIVTPSRDKEPVFEVTGMPENVDRAREEIEAHIALRTGGIIELTDENDFHANGTDVGFDLHHGSGGSGPGSLWSKPTPSITPTPGRKPFSSYRNDSSSSLGSASTDSYFGGGTSSSAAATQRLADYSPPSPALSFAHNGNNNNNGNGYTYTAGGEASVPSPDGCPELQPTFDPAPAPPPGAPLIWAQFERSPGGGPAAPVSSSCSSSASSSASSSSVVFPGGGASAPSNANLGLLVHRRLHPGTSCPRLSPPLHMAPGAGEHHLARRVRSDPGGGGLAYAAYANGLGAQLPGLQPSDTSGSSSSSSSSSSSSSSSSGLRRKGSRDCSVCFESEVIAALVPCGHNLFCMECANRICEKSEPECPVCHTAVTQAIRIFS
B1 was tested, and the binding [5] was “binds”.

B2: MEX3C (protein, UniProt Q5U5Q3 1-659)
chain: T4 sequence
In the case of B2, the binding [6] is reported as “binds”.
